Source: PMC5479826 (Scientific Reports, 2017)

Assay: general procedure: Fmoc solid-phase peptide synthesis; NovaPEG Rink Amide resin; HBTU/DIEA
Conditions: whole synthesis

CDELNEMENTQR
final purity (method not given): >95%

CDLEVESGGRDRY
final purity (method not given): >95%

CEALQQIMENQCD
final purity (method not given): >95%

CNFRAPQRCDLDV
final purity (method not given): >95%

ERDPYSP^OHSQDPYSP^OHS
final purity (method not given): >95%

HASARQQWEL
final purity (method not given): >95%

KPCEQHIMQRI
final purity (method not given): >95%

KRELRMLPQQ
final purity (method not given): >95%

MRRERGRGGDSSSS
final purity (method not given): >95%

NLRPCEQHLMQKIQRD
final purity (method not given): >95%

RQQEQQFKRELRNLPQQ
final purity (method not given): >95%

RRCQSQLER
final purity (method not given): >95%

SDRLQGRQQ
final purity (method not given): >95%

Where a sequence shows no end group, the ends are not given. One purity is given for all peptides; the source may state it once.
